The other results are listed elsewhere or left out.
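Also: competitive profiling in live THP-1 cells: cysteine peptides tagged with an iodoacetamide desthiobiotin (IA-DTB) probe, intensity after compound treatment relative to DMSO-treated cells.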

Protein sequences, listed by entry. Tags and fused reporters are not part of them. Lines headed by an entry give the natural chain unless they say otherwise; changes in a name come on top.
UniProt Q5T8I3: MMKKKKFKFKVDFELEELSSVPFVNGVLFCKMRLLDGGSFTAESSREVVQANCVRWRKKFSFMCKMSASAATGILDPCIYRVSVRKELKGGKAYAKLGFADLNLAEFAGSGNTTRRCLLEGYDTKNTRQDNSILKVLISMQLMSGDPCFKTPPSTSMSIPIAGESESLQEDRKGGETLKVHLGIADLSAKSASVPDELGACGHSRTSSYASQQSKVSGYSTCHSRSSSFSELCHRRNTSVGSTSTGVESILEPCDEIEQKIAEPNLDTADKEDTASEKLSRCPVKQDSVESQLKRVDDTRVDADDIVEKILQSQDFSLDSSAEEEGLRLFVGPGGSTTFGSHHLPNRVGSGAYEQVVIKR
UniProt Q9NQT5, whole entry, looked up: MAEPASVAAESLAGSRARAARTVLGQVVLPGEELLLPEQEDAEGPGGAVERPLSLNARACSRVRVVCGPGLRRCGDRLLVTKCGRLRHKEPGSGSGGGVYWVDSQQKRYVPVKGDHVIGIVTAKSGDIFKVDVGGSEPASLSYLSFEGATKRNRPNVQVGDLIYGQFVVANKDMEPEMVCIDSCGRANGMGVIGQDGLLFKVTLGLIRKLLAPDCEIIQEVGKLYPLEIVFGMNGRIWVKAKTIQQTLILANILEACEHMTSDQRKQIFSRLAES
UniProt Q96HE7: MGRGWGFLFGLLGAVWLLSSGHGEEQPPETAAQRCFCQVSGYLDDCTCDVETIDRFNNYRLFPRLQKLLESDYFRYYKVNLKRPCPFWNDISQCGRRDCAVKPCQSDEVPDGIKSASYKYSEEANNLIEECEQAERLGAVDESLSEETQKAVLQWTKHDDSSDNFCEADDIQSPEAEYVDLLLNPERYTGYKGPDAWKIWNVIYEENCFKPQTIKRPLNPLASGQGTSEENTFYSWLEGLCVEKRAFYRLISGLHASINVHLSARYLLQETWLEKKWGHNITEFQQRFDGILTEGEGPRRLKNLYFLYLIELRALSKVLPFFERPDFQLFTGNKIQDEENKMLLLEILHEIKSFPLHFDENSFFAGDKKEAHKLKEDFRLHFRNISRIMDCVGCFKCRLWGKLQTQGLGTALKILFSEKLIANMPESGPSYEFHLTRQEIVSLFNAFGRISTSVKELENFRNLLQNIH
UniProt Q01469, whole entry, looked up: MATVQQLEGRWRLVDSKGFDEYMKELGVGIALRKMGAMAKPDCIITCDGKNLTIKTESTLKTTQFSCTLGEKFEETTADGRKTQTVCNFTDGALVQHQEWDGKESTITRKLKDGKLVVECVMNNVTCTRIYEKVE
UniProt Q96EK7: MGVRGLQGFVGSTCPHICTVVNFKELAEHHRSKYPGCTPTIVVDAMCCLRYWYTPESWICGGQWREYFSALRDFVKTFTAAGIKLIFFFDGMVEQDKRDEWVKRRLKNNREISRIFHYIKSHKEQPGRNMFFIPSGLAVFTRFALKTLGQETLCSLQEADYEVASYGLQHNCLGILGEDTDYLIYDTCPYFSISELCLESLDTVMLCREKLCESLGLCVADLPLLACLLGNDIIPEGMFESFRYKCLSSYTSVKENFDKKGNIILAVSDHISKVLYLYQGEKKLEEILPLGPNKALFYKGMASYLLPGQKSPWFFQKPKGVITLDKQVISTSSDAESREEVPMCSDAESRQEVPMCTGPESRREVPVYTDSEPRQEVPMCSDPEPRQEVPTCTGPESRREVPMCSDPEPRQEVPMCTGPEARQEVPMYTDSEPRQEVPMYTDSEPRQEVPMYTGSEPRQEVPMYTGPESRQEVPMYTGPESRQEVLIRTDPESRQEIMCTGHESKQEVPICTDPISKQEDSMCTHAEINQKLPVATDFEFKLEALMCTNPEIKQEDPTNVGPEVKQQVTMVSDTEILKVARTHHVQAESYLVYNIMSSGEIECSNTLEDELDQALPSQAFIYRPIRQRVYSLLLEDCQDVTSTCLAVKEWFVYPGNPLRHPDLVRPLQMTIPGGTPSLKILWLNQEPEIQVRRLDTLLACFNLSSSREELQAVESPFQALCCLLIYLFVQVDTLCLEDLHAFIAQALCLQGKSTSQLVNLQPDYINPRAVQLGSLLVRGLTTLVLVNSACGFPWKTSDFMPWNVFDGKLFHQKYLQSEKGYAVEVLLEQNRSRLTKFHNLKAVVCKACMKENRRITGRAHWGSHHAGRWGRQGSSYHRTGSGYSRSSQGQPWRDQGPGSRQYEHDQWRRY
UniProt Q56NI9: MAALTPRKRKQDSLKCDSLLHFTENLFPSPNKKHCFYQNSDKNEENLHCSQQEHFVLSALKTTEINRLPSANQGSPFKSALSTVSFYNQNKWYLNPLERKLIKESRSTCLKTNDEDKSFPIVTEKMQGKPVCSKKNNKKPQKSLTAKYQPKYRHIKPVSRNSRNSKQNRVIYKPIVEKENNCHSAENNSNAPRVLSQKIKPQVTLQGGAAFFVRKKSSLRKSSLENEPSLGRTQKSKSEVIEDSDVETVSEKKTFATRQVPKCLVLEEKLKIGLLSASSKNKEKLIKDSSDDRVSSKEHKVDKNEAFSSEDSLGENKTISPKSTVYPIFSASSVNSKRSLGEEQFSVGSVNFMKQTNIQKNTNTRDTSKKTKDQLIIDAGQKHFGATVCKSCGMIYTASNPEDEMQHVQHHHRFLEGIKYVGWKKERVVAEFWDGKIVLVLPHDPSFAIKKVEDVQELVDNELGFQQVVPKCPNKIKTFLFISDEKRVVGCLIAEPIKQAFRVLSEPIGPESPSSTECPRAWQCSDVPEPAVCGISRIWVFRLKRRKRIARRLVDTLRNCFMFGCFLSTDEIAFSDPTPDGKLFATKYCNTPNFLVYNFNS
UniProt P41212: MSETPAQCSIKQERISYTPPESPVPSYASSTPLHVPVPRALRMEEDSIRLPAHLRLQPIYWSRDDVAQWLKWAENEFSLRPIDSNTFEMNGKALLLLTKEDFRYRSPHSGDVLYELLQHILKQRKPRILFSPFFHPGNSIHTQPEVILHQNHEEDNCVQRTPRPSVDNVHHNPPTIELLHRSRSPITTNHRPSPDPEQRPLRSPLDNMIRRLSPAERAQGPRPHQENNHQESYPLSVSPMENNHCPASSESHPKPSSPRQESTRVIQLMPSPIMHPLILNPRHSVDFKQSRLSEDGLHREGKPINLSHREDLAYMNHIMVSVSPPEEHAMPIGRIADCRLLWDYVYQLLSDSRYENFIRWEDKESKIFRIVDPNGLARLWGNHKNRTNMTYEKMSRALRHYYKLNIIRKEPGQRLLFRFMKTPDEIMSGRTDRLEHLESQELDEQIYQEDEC
UniProt Q96B26, whole entry, looked up: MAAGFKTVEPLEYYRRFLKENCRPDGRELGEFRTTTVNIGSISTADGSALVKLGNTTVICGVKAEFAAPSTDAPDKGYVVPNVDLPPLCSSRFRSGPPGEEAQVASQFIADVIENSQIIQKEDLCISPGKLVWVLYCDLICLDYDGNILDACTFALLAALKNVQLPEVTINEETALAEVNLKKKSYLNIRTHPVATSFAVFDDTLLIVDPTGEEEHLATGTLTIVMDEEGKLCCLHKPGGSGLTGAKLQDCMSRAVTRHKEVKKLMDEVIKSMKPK
UniProt Q9BZQ8: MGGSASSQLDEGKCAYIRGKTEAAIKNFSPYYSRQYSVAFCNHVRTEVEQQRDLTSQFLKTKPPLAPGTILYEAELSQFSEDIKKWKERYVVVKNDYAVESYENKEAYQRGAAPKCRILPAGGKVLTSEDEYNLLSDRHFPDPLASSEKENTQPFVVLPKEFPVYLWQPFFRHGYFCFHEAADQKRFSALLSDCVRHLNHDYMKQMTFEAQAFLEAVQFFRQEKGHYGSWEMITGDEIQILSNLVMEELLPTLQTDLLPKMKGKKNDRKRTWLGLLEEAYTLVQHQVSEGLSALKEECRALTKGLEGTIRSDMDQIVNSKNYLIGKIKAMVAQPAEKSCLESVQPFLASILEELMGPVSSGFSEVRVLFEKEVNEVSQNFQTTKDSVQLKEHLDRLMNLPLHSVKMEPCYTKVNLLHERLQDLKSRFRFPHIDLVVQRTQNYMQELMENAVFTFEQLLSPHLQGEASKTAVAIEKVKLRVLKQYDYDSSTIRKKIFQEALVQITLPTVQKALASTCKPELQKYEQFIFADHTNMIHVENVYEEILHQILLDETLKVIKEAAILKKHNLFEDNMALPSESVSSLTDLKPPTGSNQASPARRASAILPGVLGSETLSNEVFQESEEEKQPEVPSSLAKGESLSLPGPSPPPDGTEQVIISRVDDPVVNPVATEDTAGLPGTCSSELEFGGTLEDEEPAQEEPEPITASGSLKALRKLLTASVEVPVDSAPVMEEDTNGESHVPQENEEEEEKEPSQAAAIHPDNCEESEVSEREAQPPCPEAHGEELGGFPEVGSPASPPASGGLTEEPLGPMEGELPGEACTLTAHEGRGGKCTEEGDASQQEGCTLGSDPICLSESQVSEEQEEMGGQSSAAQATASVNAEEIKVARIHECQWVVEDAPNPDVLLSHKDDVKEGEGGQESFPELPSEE
UniProt P28715: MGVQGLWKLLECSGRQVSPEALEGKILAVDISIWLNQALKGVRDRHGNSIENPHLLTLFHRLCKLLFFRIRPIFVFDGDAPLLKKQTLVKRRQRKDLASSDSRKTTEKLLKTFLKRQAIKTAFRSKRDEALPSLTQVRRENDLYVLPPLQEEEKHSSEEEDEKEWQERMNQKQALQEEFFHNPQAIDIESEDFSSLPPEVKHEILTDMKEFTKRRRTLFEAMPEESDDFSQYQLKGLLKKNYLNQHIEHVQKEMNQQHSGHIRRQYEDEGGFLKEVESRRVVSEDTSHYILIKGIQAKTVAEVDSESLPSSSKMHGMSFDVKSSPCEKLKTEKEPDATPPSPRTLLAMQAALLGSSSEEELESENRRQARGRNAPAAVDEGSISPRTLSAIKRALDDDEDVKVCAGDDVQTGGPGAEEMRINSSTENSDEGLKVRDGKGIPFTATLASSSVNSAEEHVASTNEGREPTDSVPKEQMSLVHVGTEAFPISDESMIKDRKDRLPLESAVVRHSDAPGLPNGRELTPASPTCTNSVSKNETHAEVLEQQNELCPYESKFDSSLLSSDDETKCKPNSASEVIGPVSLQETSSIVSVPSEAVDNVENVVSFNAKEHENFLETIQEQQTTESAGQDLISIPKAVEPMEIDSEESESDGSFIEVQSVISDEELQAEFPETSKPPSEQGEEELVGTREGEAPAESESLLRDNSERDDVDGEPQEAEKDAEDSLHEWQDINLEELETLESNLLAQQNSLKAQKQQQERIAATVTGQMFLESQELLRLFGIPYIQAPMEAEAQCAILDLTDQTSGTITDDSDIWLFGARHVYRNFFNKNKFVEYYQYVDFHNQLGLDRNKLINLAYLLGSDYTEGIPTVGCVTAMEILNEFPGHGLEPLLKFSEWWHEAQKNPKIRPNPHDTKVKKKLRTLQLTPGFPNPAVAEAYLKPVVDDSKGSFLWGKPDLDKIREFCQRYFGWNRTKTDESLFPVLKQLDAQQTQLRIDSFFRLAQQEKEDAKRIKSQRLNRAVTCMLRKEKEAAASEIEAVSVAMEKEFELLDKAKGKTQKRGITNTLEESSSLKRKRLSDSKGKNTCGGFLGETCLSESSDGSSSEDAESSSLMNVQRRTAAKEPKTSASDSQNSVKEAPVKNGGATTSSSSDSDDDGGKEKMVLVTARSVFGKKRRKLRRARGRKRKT
UniProt O94905: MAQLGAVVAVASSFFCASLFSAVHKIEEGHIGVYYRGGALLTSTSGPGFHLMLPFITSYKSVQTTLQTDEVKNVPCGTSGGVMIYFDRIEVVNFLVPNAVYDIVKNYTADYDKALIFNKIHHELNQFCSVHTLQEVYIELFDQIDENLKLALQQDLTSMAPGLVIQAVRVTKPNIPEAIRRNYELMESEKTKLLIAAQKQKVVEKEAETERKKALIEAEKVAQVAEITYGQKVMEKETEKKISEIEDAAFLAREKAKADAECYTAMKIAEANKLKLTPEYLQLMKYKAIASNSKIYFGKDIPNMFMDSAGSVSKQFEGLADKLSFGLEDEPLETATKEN
UniProt Q9NWS6: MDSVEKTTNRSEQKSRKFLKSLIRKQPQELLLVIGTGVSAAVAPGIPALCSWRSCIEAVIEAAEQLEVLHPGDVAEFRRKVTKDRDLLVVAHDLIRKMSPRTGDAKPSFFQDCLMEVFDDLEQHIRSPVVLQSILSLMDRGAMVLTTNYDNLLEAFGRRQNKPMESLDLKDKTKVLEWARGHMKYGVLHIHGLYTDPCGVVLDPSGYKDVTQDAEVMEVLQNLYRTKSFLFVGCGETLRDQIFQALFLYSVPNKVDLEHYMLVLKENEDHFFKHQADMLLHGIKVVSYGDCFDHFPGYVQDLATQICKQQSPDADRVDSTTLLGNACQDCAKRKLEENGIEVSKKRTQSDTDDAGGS
UniProt P10768: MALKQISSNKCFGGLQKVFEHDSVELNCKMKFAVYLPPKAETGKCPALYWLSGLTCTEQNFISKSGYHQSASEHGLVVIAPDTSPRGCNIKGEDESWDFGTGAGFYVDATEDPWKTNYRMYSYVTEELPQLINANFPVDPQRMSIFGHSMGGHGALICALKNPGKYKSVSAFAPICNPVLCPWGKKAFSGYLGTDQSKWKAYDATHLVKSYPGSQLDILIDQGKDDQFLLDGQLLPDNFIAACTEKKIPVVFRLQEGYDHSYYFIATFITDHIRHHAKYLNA

Compound in the assay: Cc1cc(ccc1-c1ccccc1)C(=O)N1CCCN(CC1)C(=O)CCl [compound 10]
In words: probe-labelled cysteine peptide fold change vs DMSO (competition) (log2 fold change); higher = less target engagement (more negative = stronger competition). The settings on record: 50 µM; THP-1; incubation time: 4 h.
For “FAM102B_Q5T8I3_201_SASVPDELGACGHSR (UniProt Q5T8I3)”, the “probe-labelled cysteine peptide fold change” value was -0.248.
The value for “EXOSC3_Q9NQT5_257_TIQQTLILANILEACEHMTSDQRK (UniProt Q9NQT5)” was -0.152; that for “ERGIC3_Q9Y282_145_HELGKVEVTVFDPDSLDPDRCESCYGAEAEDIK (UniProt Q9Y282)” was -0.175.
Under “ERO1A_Q96HE7_104_PCQSDEVPDGIK (UniProt Q96HE7)” stands 0.0155.
Under “FABP5_Q01469_67_TTQFSCTLGEK (UniProt Q01469)” stands 0.0805.
With “FAM120B_Q96EK7_18_GLQGFVGSTCPHICTVVNFK (UniProt Q96EK7)”, the “probe-labelled cysteine peptide fold change” value is -0.191.
The value for “ESCO2_Q56NI9_182_ENNCHSAENNSNAPR (UniProt Q56NI9)” was 0.479.
The value for “ETV6_P41212_452_TDRLEHLESQELDEQIYQEDEC (UniProt P41212)” was 0.00988; that for “ERLIN1_O75477_128_IHHELNQFCSAHTLQEVYIELFDQIDENLK (UniProt O75477)” was 0.249; that for “EXOSC3_Q9NQT5_257_TIQQTLILANILEACEHMTSDQR (UniProt Q9NQT5)” was 0.248.
“EXOSC8_Q96B26_125_EDLCISPGK (UniProt Q96B26)”: the “probe-labelled cysteine peptide fold change” value is 0.605.
Regarding “FAM129A_Q9BZQ8_194_RFSALLSDCVR (UniProt Q9BZQ8)”, the “probe-labelled cysteine peptide fold change” value was 0.0111.
Under “ERCC5_P28715_550_NETHAEVLEQQNELCPYESK (UniProt P28715)” stands -0.364.
Regarding “ESCO2_Q56NI9_392_SCGMIYTASNPEDEMQHVQHHHR (UniProt Q56NI9)”, the “probe-labelled cysteine peptide fold change” value came out at 0.392.
Under “EXOSC8_Q96B26_251_LQDCMSR (UniProt Q96B26)” stands -0.0516; under “ERLIN2_O94905_262_AKADAECYTAMK (UniProt O94905)”, -0.183; under “EXOSC3_Q9NQT5_184_DMEPEMVCIDSCGR (UniProt Q9NQT5)”, -0.423.
For “FAM102B_Q5T8I3_254_NTSVGSTSTGVESILEPCDEIEQK (UniProt Q5T8I3)”, the “probe-labelled cysteine peptide fold change” value is -0.086.
The value for “FAM129A_Q9BZQ8_891_IHECQWVVEDAPNPDVLLSHK (UniProt Q9BZQ8)” was -0.218.
Consider “FAM118A_Q9NWS6_113_TGDAKPSFFQDCLMEVFDDLEQHIR (UniProt Q9NWS6)”, for which the “probe-labelled cysteine peptide fold change” value was -0.519.
Consider “FAM120C_Q9NX05_745_AFLACMK (UniProt Q9NX05)”, for which the “probe-labelled cysteine peptide fold change” value is -0.151.
Under “EXOSC6_Q5RKV6_117_APPGGCEERELALALQEALEPAVR (UniProt Q5RKV6)” stands -1.49; under “ERCC6L_Q2NKX8_356_NPDVDAICEMPSLSR (UniProt Q2NKX8)”, -0.352.
On to “EXOC2_Q96KP1_388_WILQLMHSCK (UniProt Q96KP1)”, for which the “probe-labelled cysteine peptide fold change” value worked out at 0.36.
Under “EXOC6_Q8TAG9_532_TLSSCLLNLIR (UniProt Q8TAG9)” stands 0.348; under “FADD_Q13158_168_SCQMNLVADLVQEVQQAR (UniProt Q13158)”, -0.17.
Regarding “EXOSC8_Q96B26_89_GYVVPNVDLPPLCSSR (UniProt Q96B26)”, the “probe-labelled cysteine peptide fold change” value was -0.11.
Under “FAM102B_Q5T8I3_64_FSFMCK (UniProt Q5T8I3)” stands 0.126; under “ETNK1_Q9HBU6_307+313_EILSNLGSPVVLCHNDLLCK (UniProt Q9HBU6)”, -0.271.
The value for “ESYT2_A0FGR8_181_ACDLPAWVHFPDTERAEWLNK (UniProt A0FGR8)” was -0.48; that for “ERP44_Q9BS26_301_GTINFLHADCDK (UniProt Q9BS26)” was 0.0373.
Under “FADS1_O60427_407_VAPLVQSLCAK (UniProt O60427)” stands -0.188; under “FAM120B_Q96EK7_344_QVISTSSDAESREEVPMCSDAESR (UniProt Q96EK7)”, -0.331.
For the target “ERO1A_Q96HE7_85_RPCPFWNDISQCGR (UniProt Q96HE7)”, the “probe-labelled cysteine peptide fold change” value turned out to be 0.243.
The value for “ERCC4_Q92889_723_GIDIEPVTLEVGDYILTPEMCVER (UniProt Q92889)” was -0.0411; that for “FABP5_Q01469_127_LVVECVMNNVTCTR (UniProt Q01469)” was -0.715; that for “ERMP1_Q7Z2K6_737_AHCEENAPLCGFPWYLPVHFLIR (UniProt Q7Z2K6)” was 0.222.
Under “FAM102B_Q5T8I3_254_RNTSVGSTSTGVESILEPCDEIEQK (UniProt Q5T8I3)” stands 0.149; under “ESD_P10768_56_CPALYWLSGLTCTEQNFISK (UniProt P10768)”, 0.105.
“ERLIN2_O94905_262_ADAECYTAMK (UniProt O94905)”: the “probe-labelled cysteine peptide fold change” value worked out at 0.205.

These data come from the supplement of paper PMC12067093, “Discovery and optimisation of a covalent ligand for TRIM25 and its application to targeted protein ubiquitination” (Chemical Science, 2025).
